Data source: PubChem BioAssay AID1508597 (Cure First, 2020)

Test: 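Knock-downs altering ovarian cancer cell survival with or without PARP inhibitor rucaparib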 (primary screen)
Cell system: human ovarian carcinoma lines grown from tumours: OCI-P5x (papillary serous) and OCI-C5x (clear cell)
Knock-down reagent: siRNA pool against human genes, 1.25 pmol siRNA per well
Duration: 72 h or 96 h, depending on the cell culture
Challenge: rucaparib 20 µM (about IC30) or vehicle, present until read-out
Rucaparib or vehicle: Rucaparib
Cell line: OCI-C5x (clear cell)
Detection: 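Luminescent ATP-based viability assay read 72 or 96 h after transfection, depending on culture, given as normalised percent viability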
Scale: viability, normalised: higher = more viable cells remaining
Call rule: 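a well counts as a hit if its normalised viability is under 80 percent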
Meaning of the calls: active = viability under 80%; inactive = viability 80% or more
Shown is a random part of the about 2,100 reagents, under one of the conditions tested. 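Calls flag viability under 80% in either arm, not effects specific to rucaparib; the reference for percent is not stated.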 A number with no mark means an inactive call. Reagent sequences are not shown. Not given: the 100% reference.

For MDC1 (mediator of DNA damage checkpoint 1), technical replicate 1, what does the deposit list?
viability, normalised (%): 47.2 (active)

Which result is listed for MDC1 (mediator of DNA damage checkpoint 1), technical replicate 2?
viability, normalised (%): 46.4 (active)

With MDC1 (mediator of DNA damage checkpoint 1), technical replicate 3, what does the deposit list?
viability, normalised (%): 62.6 (active)

With TREX2 (three prime repair exonuclease 2), technical replicate 1, what was measured?
viability, normalised (%): 42.5 (active)

With TREX2 (three prime repair exonuclease 2), technical replicate 2, what was measured?
viability, normalised (%): 70.3 (active)

What is on record for TREX2 (three prime repair exonuclease 2), technical replicate 3?
viability, normalised (%): 62.4 (active)

What is on record for RLIM (ring finger protein, LIM domain interacting), technical replicate 1?
viability, normalised (%): 58.3 (active)

With RLIM (ring finger protein, LIM domain interacting), technical replicate 2, what does the deposit list?
viability, normalised (%): 50.2 (active)

With RLIM (ring finger protein, LIM domain interacting), technical replicate 3, what does the deposit list?
viability, normalised (%): 37 (active)

With EPHA1 (EPH receptor A1), technical replicate 1, what was measured?
viability, normalised (%): 54.4 (active)

With EPHA1 (EPH receptor A1), technical replicate 2, how do the results read?
viability, normalised (%): 42.8 (active)

Which result is listed for EPHA1 (EPH receptor A1), technical replicate 3?
viability, normalised (%): 49.7 (active)

Which result is listed for TNIK (TRAF2 and NCK interacting kinase), technical replicate 1?
viability, normalised (%): 36.6 (active)

Which result is listed for TNIK (TRAF2 and NCK interacting kinase), technical replicate 2?
viability, normalised (%): 40.8 (active)

For TNIK (TRAF2 and NCK interacting kinase), technical replicate 3, what was measured?
viability, normalised (%): 27.5 (active)

How did the screen score PCDHB2 (protocadherin beta 2), technical replicate 1?
viability, normalised (%): 52.4 (active)

With PCDHB2 (protocadherin beta 2), technical replicate 2, how do the results read?
viability, normalised (%): 59.9 (active)

For PCDHB2 (protocadherin beta 2), technical replicate 3, what does the deposit list?
viability, normalised (%): 59.2 (active)

What did the screen give for DDR1 (discoidin domain receptor tyrosine kinase 1), technical replicate 1?
viability, normalised (%): 43.5 (active)

What is on record for DDR1 (discoidin domain receptor tyrosine kinase 1), technical replicate 2?
viability, normalised (%): 46.1 (active)

For DDR1 (discoidin domain receptor tyrosine kinase 1), technical replicate 3, how do the results read?
viability, normalised (%): 41 (active)

How did the screen score KDM3B (lysine demethylase 3B), technical replicate 1?
viability, normalised (%): 66.3 (active)

For KDM3B (lysine demethylase 3B), technical replicate 2, what does the deposit list?
viability, normalised (%): 58.7 (active)

With KDM3B (lysine demethylase 3B), technical replicate 3, what was measured?
viability, normalised (%): 61.5 (active)

Which result is listed for NKX2-3 (NK2 homeobox 3), technical replicate 1?
viability, normalised (%): 37.7 (active)

Which result is listed for NKX2-3 (NK2 homeobox 3), technical replicate 2?
viability, normalised (%): 50.5 (active)

With NKX2-3 (NK2 homeobox 3), technical replicate 3, what was measured?
viability, normalised (%): 37 (active)

For MAP2K1 (mitogen-activated protein kinase kinase 1), technical replicate 1, what was measured?
viability, normalised (%): 56 (active)

With MAP2K1 (mitogen-activated protein kinase kinase 1), technical replicate 2, what does the deposit list?
viability, normalised (%): 56.6 (active)

With MAP2K1 (mitogen-activated protein kinase kinase 1), technical replicate 3, what was measured?
viability, normalised (%): 60.1 (active)

Which result is listed for TEAD4 (TEA domain transcription factor 4), technical replicate 1?
viability, normalised (%): 78.7 (active)

With TEAD4 (TEA domain transcription factor 4), technical replicate 2, how do the results read?
viability, normalised (%): 53.1 (active)

For TEAD4 (TEA domain transcription factor 4), technical replicate 3, what was measured?
viability, normalised (%): 52.6 (active)

Reformatted: entries from further up.
gene,technical replicate,"viability, normalised (%)"
KDM3B (lysine demethylase 3B),2,58.7 (active)
KDM3B (lysine demethylase 3B),3,61.5 (active)
NKX2-3 (NK2 homeobox 3),1,37.7 (active)
NKX2-3 (NK2 homeobox 3),2,50.5 (active)
